Results as given in patent publication US20110178104A1, “Anti-Heparin Compounds” (POLYMEDIX INC., priority 2010, published 2011).
Some results were stated once for a whole list of compounds, not compound by compound. Some compounds share one range, which may span the group rather than tell each member.

Tested on: not listed separately
Experiment: Single dose toxicity (MTD)
Settings: in vivo

Row | Compound | single dose toxicity (MTDs) [mg/kg]
1 | COc1ccc(NC(=O)[C@H](CCCNC(=N)N)NC(=O)c2cc(NC(=O)[C@H](CCCNC(=N)N)NC(=O)c3cc(NC(=O)[C@H](CCCNC(=N)N)NC(=O)c4cc(NC(=O)[C@@H](N)CCCNC(=N)N)ccc4OC)ccc3OC)ccc2OCC(=O)O)cc1C(=O)N[C@@H](Cc1c[nH]c2ccccc12)C(N)=O [Compound 311] | ≥ 30
2 | COc1ccc(NC(=O)[C@@H](CCCNC(=N)N)NC(=O)c2cc(NC(=O)[C@@H](CCCNC(=N)N)NC(=O)c3cc(NC(=O)[C@@H](CCCNC(=N)N)NC(=O)c4cc(NC(=O)[C@H](N)CCCNC(=N)N)ccc4OCC(=O)O)ccc3OC)ccc2OC)cc1C(N)=O [Compound 283] | ≥ 30
3 | COc1ccc(NC(=O)[C@@H](CCCNC(=N)N)NC(=O)c2cc(NC(=O)[C@@H](CCCNC(=N)N)NC(=O)c3cc(NC(=O)[C@@H](CCCNC(=N)N)NC(=O)c4cc(NC(=O)[C@H](N)CCCNC(=N)N)ccc4OC)ccc3OC)ccc2OCC(=O)O)cc1C(=O)N[C@H](Cc1c[nH]c2ccccc12)C(N)=O [Compound 305] | ≥ 30
4 | COc1ccc(NC(=O)[C@H](CCCCN)NC(=O)c2cc(NC(=O)[C@H](CCCCN)NC(=O)c3cc(NC(=O)[C@H](CCCCN)NC(=O)c4cc(NC(=O)[C@@H](N)CCCCN)ccc4OC)ccc3OC)ccc2OC)cc1C(=O)N[C@@H](Cc1c[nH]c2ccccc12)C(=O)O [Compound 266] | ≥ 30
5 | COc1cc(OC)c(C(=O)N[C@H]2CC[C@H](NC(=O)c3cc(C(=O)NCCN(C)C)c(OCCCCCNC(=N)N)cc3OCCCCCNC(=N)N)CC2)cc1C(=O)N[C@H]1CC[C@H](NC(=O)c2cc(C(=O)NCCN(C)C)c(OCCCCCNC(=N)N)cc2OCCCCCNC(=N)N)CC1 [Compound B] | ≥ 30

Tested on: enoxaparin
Experiment: FXa amidolytic assay in human plasma, enoxaparin
Format: biochemical
Settings: not given

Row | Compound | concentration antagonizing about 50% of the anticoagulant effect of enoxaparin (FXa amidolytic) [µg/mL]
6 | COc1ccc(NC(=O)[C@@H](CCCN)NC(=O)c2cc(NC(=O)[C@@H](CCCNC(=N)N)NC(=O)c3cc(NC(=O)[C@@H](CCCNC(=N)N)NC(=O)c4cc(NC(=O)[C@H](N)CCCN)ccc4OC)ccc3OC)ccc2OC)cc1C(N)=O [Compound 30] | 25 to 30
